Source: publication PMC10837126
Results are given in words; binding and its absence hold for the method and conditions named. Binding seen in cells or lysates may run through a third protein. Some entries that bind do so weakly or less than the wild type.

Sequences of proteins named here, by UniProt entry; tags and fusion partners are left off. Residues count along the entry.
UniProt P97793, residues 19-1621: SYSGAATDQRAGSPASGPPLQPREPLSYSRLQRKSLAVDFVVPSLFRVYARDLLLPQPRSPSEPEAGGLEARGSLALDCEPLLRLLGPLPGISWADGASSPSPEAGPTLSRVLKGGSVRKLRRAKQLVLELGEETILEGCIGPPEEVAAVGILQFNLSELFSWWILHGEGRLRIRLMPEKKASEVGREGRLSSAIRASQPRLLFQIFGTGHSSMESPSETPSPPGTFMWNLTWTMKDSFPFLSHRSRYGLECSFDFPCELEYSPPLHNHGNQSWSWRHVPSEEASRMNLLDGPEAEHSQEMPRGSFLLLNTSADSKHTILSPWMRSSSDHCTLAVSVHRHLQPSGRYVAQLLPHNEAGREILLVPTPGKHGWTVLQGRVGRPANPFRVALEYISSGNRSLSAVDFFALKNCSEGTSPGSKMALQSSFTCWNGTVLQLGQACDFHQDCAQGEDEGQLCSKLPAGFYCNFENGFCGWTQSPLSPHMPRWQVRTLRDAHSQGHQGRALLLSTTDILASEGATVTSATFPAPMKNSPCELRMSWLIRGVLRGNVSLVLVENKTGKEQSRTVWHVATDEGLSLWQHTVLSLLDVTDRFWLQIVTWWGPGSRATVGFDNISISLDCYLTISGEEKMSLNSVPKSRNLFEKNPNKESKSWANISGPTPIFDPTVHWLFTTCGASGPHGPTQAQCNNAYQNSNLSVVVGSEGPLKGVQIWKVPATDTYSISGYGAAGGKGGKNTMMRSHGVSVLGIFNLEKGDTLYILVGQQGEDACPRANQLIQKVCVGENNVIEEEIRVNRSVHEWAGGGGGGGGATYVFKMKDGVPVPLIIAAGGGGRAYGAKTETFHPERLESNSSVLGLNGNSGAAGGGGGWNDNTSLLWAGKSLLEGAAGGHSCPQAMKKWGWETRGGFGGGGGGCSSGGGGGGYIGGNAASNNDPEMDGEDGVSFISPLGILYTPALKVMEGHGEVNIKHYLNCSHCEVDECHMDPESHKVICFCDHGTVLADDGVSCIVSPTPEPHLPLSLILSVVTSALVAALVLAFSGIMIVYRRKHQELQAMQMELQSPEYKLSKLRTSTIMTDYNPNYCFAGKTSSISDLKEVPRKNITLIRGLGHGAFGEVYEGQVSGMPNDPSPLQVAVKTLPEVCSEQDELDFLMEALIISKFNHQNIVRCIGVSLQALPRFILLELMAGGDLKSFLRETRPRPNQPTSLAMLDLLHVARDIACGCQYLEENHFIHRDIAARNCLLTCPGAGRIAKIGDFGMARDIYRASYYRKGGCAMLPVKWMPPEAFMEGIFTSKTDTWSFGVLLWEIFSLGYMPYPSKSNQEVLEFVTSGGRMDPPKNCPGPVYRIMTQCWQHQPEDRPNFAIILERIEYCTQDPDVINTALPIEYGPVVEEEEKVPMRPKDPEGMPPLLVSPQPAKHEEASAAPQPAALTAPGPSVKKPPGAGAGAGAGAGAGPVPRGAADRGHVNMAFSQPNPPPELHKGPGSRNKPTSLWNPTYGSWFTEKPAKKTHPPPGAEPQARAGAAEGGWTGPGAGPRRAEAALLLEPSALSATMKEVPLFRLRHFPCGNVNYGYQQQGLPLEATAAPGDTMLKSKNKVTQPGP

B1: Recombinant RNase1 protein added to cells (1 μg/ml) (ligand, UniProt P00683 26-149)
chain: RESAAQKFQRQHMDPDGSSINSPTYCNQMMKRRDMTNGSCKPVNTFVHEPLADVQAVCSQENVTCKNRKSNCYKSSSALHITDCHLKGNSKYPNCDYKTTQYQKHIIVACEGNPYVPVHFDATV

Tests used:
[1] = molecular target: T1, Recombinant mouse RNase1 protein (cat. no. abx068908, Abbexa) (mouse) (UniProt P00683); experiment: pull-down; lysates (RIPA buffer) of BMDM or RAW264.7 cells incubated with or without recombinant mouse RNase1 at 4 °C for 4 h, then with GST fusion protein-binding magnetic beads at 4 °C for 8 h; washed with RIPA buffer; Western blot; only the target purified
T1 sequence: B1 chain

[2] = molecular target: Anaplastic lymphoma kinase (ALK), endogenous in mouse macrophages (mouse (endogenous in BMDMs and Raw264.7)) (UniProt P97793); experiment: proximity ligation; Duolink In Situ Red; Raw264.7 sgCtrl or sgAlk cells treated with or without RNase1 (1 μg/ml) for 15 min, fixed, permeabilised, anti-ALK and anti-RNase1 antibodies; only the binder purified

Row | Molecule | binding [1] | binding [2]
1 | Anaplastic lymphoma kinase (ALK), endogenous in mouse macrophages (from UniProt P97793 19-1621) (receptor) | binds | 
2 | B1 |  | binds
